Values quoted from earlier work, collected in US8759404B2, “Intravenous propofol emulsion compositions having preservative efficacy” (Bharat Serums & Vaccines Ltd., priority 2005, dated 2014).
At least one compound was matched to its structure with a doubt left.

CCCCCCCCCCCC(=O)OCC(O)CO (stereo not shown) [Monolaurin, monoglyceryl ester of lauric acid]
HLB value: less than 10
